Laboratory results: the supplement of paper PMC3334620
The full ranking holds about 33,000 sequences; the median of “E-score (-0.5 to 0.5)” is about -0.0059, and the highest 2% start at about 0.26. Some of the results follow.

Each sequence was assayed against T1, Cin5 (UniProt P40917) (assay: PBM E-score (8-mer binding enrichment) (E-score (-0.5 to 0.5)); higher = stronger / more preferred TF binding). Settings: protein concentration: 100 nM; construct: GST-full length.
T1 sequence: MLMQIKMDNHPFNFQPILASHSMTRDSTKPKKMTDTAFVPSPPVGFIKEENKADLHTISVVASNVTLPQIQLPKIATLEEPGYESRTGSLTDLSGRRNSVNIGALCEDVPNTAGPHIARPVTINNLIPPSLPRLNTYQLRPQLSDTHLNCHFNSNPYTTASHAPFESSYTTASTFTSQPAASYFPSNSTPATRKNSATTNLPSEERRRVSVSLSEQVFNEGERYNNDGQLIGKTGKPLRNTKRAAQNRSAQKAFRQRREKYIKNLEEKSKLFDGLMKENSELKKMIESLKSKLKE
Method in brief: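 Detection of bound protein used fluorescent anti-GST, with scans normalised by masliner. The proteins were GST-tagged yeast transcription factors applied at about 100-200 nM to universal all-10-mer Agilent arrays made double-stranded by primer extension. Each ungapped eight-base word, pooled with its reverse complement, was scored with an E-score from the Universal PBM Analysis Suite.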

Row | Sequence | PBM E-score
1 | ACCCTCGT | -0.132
2 | CTGGAGTC | -0.205
3 | CTCCAAGA | -0.00799
4 | CTACCGAA | -0.0351
5 | CGCCTAAC | 0.0449
6 | CAACAATA | 0.155
7 | ACCCCCCT | -0.5
8 | AGGATTCA | -0.0694
9 | TACTGTCA | 0.0969
10 | TAACAGGA | 0.121
11 | AACGAGTG | -0.033
12 | ATACTCCG | 0.162
13 | CACGCATC | -0.0589
14 | GCCGATAC | -0.136
15 | CGAAATGC | 0.165
16 | GCTAGTGA | 0.0843
17 | CCGGTTAG | -0.0145
18 | ACCCTCAT | -0.136
19 | AGTACCAC | -0.0418
20 | CGGCGCAG | -0.132
21 | ATTTCGTA | 0.177
22 | GGAGTTTA | 0.0247
23 | AACGTTCC | -0.0257
24 | CTTGAGAA | -0.125
25 | GCTGGGTA | -0.0561

Row | Sequence | PBM E-score
26 | ACTTATGG | 0.00867
27 | CCATTGAG | 0.00119
28 | AACAGTAT | 0.155
29 | AACTTCTC | -0.0605
30 | CCGATTTC | -0.0432
31 | CCCCGCCC | 0.121
32 | ATACCAAA | 0.0795
33 | ATGCACTC | 0.0439
34 | ACAGATAG | -0.0585
35 | TACTATGA | 0.25
36 | AGTCGGAC | -0.191
37 | ATTTATTG | 0.0876
38 | ATACCGCG | 0.0963
39 | ATAGAAAG | 0.024
40 | GTTGGACA | -0.13
41 | GAGCGCTC | -0.101
42 | AACGGCAG | 0.0364
43 | AAGTAAGT | 0.0737
44 | ACTTATAC | 0.122
45 | ATTGTGTC | 0.0997
46 | CAATTCTC | -0.0536
47 | GATCTCGC | 0.0459
48 | CAAGTTGA | 0.107
49 | GACCATCA | 0.0463
50 | CTGCCGCC | -0.348

Row | Sequence | PBM E-score
51 | GTTGCCTA | 0.0737
52 | AAAGTTAA | 0.158
53 | CCAAAAGA | 0.1
54 | GGGTATGA | 0.144
55 | AGGCGAGC | -0.138
56 | CACCGACG | -0.147
57 | GTTAGCAA | 0.15
58 | CCCATAAG | 0.143
59 | AGCCTCCT | -0.176
60 | ACCCTAGG | -0.233
61 | AATGGCTA | 0.274
62 | CAACGCAA | -0.0265
63 | GGCGAACA | -0.095
64 | ACATGGGG | 0.0291
65 | GCTAACAC | -0.0779
66 | CCCGGCGG | -0.00032
67 | CGTCGTCC | -0.115
68 | AAATGAGC | 0.043
69 | ATATCCAC | 0.152
70 | CGTACCTC | -0.219
71 | AGGCGTAT | 0.211
72 | ATTCGGCG | -0.0854
73 | AAATCAGC | 0.235
74 | GAACAATC | 0.0732
75 | CTTCGCCC | -0.189

Row | Sequence | PBM E-score
76 | CATGCAGG | -0.0612
77 | AGTGATGC | -0.0358
78 | GTTGAATA | 0.194
79 | AGATACAC | 0.217
80 | ACCGGGCT | -0.197
81 | GCCGATCA | 0.00909
82 | GATTCGAA | 0.204
83 | ACTAATTA | 0.228
84 | CACCATCC | -0.131
85 | CATCACAC | 0.0753
86 | AGATTGCT | 0.0412
87 | ATAGACAC | -0.0664
88 | TGGACCAA | -0.0345
89 | AGTTCCTC | -0.161
90 | CCAACCGG | -0.0807
91 | CACAAATG | -0.00062
92 | ACTAGACG | 0.0288
93 | GTACGGCA | 0.0516
94 | GCGGACCC | -0.2
95 | CAACGGAA | 0.103
96 | AAGAAGTA | 0.0746
97 | AAGATACA | 0.23
98 | ATATGGGG | 0.103
99 | AGAGAGCG | -0.132
100 | CACCAAGC | -0.0799

Row | Sequence | PBM E-score
101 | CAGTCCCC | -0.346
102 | ATGGGGGC | -0.403
103 | GGTCTGTA | 0.0429
104 | GTCACGGA | 0.0312
105 | CAGATTGG | -0.0594
106 | ATATGAAC | 0.132
107 | ACCGGCAT | 0.14
108 | CCAGTGAC | -0.211
109 | AAGGCGAA | -0.0742
110 | ACGTTTTC | 0.127
111 | GTCTGAAC | -0.16
112 | AAGAATTC | 0.0337
113 | AGGCAACC | -0.00586
114 | ATTAAAAA | 0.162
115 | GTCCGGCA | -0.176
116 | AAAGGCGC | -0.0471
117 | TCAAGTCA | 0.0301
118 | AACCAGGC | -0.0368
119 | TCGTGAGA | -0.0829
120 | CTCGCACC | -0.0787
121 | AGTACGGC | 0.0954
122 | GCTTGAGA | -0.148
123 | CTAGACGA | -0.0959
124 | ATAGTTTA | 0.0429
125 | ACACCGGG | -0.175

Row | Sequence | PBM E-score
126 | AGACTGGG | -0.1
127 | TATTCTGA | 0.0462
128 | CTATGGAG | -0.139
129 | AAGTTTAC | 0.104
130 | GATGACCC | -0.1
131 | ACTCGAAC | 0.0393
132 | AGACTGCG | -0.0973
133 | CCAGCTCC | -0.227
134 | GAATTGCA | 0.161
135 | ATACCTAC | 0.046
136 | CCATACGA | 0.074
137 | ACAATCTG | 0.0544
138 | TAGTAAAA | 0.137
139 | ATCAAGTA | 0.198
140 | AGTATGTA | 0.161
141 | CGACTGTA | -0.176
142 | ACACCGGC | -0.113
143 | TATCCTAA | 0.0208
144 | AAGCAGTC | 0.0177
145 | CTTCACTA | 0.0658
146 | ACCGAGGA | -0.111
147 | ACGCTAGA | -0.0965
148 | TAGTGCCA | -0.143
149 | TAAAGATA | 0.171
150 | GGGTGCAA | 0.117

Records 143 through 149, quoted:
Row | Sequence | PBM E-score
143 | TATCCTAA | 0.0208
144 | AAGCAGTC | 0.0177
145 | CTTCACTA | 0.0658
146 | ACCGAGGA | -0.111
147 | ACGCTAGA | -0.0965
148 | TAGTGCCA | -0.143
149 | TAAAGATA | 0.171

4 entries drawn at random from the list so far, as already listed:
Row | Sequence | PBM E-score
65 | GCTAACAC | -0.0779
8 | AGGATTCA | -0.0694
21 | ATTTCGTA | 0.177
72 | ATTCGGCG | -0.0854

(cont.)

Row | Sequence | PBM E-score
151 | GGGAAAGA | -0.124
152 | GTCAATGA | 0.115
153 | ACTGAGCT | -0.0801
154 | CTGAGATA | 0.0496
155 | AAAGACTT | -0.292
156 | CAAGGCGC | -0.179
157 | AAAATGCG | -0.0174
158 | AGTCGTCC | -0.121
159 | ACTGCCAC | -0.012
160 | AAGCATAC | 0.114
161 | GGAGCATA | 0.0966
162 | GTTTTCAA | 0.146
163 | CACCGTTC | -0.0132
164 | CCGCCACG | -0.222
165 | ACTATGGG | -0.0453
166 | ACTTGGTC | 0.101
167 | ATCATGGC | 0.0952
168 | ACATGTCG | 0.0755
169 | GGCGCTGA | 0.0107
170 | AATCGTTA | 0.0448
171 | ATATGCCC | -0.087
172 | TCCACGGA | 0.198
